The target of the assay is full-length PcoB (E. coli) (UniProt Q47453). The experiment in a line: SEC.

These are yes or no findings as the source states them, for the method shown.

The record followed here is doi:10.1101/2021.11.26.470079.

B1: full-length PcoB (protein, UniProt Q47453 24-296)
chain: AGSVSADPHAGHDMSAMQMPADENFTEMTSMEPIVTESRTPIPPVTDADRKAAFGNLQGHAIHDSAINYLVLLDQLEWQRSDNTNNFSWSVNSWIGGDTDRIWLKSEGERSNGETEAAEAQLLWGHAVGPWWDLVAGVRQDFRPASARTWAAVGFQGLALYNFESEITGFVSNGGKAALRLGGEYDVLLTNRLILQPSYEVNFYSQDDESRGRGRGLTDTELGLRLRYEIRREFAPYIGVSWNQLYGKTSDMAKREGEKDHQVVFLAGARIWF
With B1, the binding result was “no binding”.
